Data on one sequence can be found in publication PMC7062800.

Construct, isoform or probe ends are uncertain for at least one entry. For some of these results: No signal at the amounts used counts as a negative. For some of these results: At least one verdict rests on a figure or table, not on a statement of the authors.

Series [1] relates to RdhK1 (CprK4) (Desulfitobacterium hafniense DCB-2). In words: EMSA. Particulars: EMSA: 100 ng DNA, 2 uM protein, 200 uM effector, 15 uL, 40% glycerol, 10 mM MgCl2, 500 mM NaCl, 5 mM EDTA, 10 mM DTT, 30 min, recombinant protein. (In general: A gel shift assay detects complexes by their altered migration in electrophoresis.)
Series [2] has as its system RdhK6 (CprK1) (Desulfitobacterium hafniense DCB-2). In words: EMSA. The conditions noted are these: EMSA: 100 ng DNA, 2 uM protein, 200 uM effector, 15 uL, 40% glycerol, 10 mM MgCl2, 500 mM NaCl, 5 mM EDTA, 10 mM DTT, 30 min, recombinant protein.

On to “GAATTCTCAGGCGATGTAACCGCTTTCAAATTTAGTATACGCTAAATATCTTAACAATGTGATAGCTATGATTGCACCG (double strand) [mgl-DB8]”, for which the binding result in series [1] (200 uM 3,5-DCP) is given as “binds”; in series [1] (200 uM Cl-OHPA (no increase over no effector)), “binds”; in series [2] (200 uM 3,5-DCP) it was “no binding”; in series [2] (no effector), “no binding”.
